# According to article doi:10.1101/032581:
# Sequences of proteins named here, by UniProt entry; tags and fusion partners are left off.
# UniProt P40562: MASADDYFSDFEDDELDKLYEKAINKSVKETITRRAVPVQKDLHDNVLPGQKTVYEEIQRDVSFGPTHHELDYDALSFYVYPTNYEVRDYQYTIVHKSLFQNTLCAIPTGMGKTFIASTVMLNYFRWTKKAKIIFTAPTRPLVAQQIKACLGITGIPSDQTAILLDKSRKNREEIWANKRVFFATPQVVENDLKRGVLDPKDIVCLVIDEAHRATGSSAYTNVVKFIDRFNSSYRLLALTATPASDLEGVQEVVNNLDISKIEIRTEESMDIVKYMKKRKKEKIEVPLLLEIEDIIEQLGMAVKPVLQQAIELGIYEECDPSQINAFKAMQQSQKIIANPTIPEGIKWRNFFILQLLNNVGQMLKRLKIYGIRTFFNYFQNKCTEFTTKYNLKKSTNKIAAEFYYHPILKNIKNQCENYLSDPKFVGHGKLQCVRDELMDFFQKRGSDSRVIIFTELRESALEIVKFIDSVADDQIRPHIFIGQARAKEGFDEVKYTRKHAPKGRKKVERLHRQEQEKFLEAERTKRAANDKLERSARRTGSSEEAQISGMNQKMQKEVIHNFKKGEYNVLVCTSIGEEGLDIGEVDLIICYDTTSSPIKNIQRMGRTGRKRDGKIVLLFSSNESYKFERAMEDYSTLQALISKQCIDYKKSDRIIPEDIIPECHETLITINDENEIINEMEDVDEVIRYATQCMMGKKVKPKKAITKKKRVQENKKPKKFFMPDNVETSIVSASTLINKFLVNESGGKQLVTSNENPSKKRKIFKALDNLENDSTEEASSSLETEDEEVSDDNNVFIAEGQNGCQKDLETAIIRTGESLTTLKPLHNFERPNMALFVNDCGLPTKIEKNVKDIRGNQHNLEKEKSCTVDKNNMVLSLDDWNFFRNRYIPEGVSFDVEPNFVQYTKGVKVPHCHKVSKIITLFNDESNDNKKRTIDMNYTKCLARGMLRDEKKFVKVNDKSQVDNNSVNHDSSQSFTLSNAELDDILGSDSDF
# Results are given in words; binding and its absence hold for the method and conditions named. Binding seen in cells or lysates may run through a third protein. Some results given as binding are weak or reduced against the parent protein; the word gives no strength. Where a sequence is shown, tags or fusion partners need not be part of it.
# T1: Mte1-10flag (S. cerevisiae (budding yeast)) (UniProt P53227)
# T1 sequence: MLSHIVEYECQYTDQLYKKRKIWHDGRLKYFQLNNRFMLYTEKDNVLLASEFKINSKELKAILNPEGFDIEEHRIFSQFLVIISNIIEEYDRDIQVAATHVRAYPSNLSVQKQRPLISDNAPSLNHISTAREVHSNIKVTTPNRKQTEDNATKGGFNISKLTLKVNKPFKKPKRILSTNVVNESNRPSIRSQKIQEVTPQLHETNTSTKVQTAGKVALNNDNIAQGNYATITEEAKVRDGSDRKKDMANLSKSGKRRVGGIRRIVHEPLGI
# B1: Mte1-10flag (protein, UniProt P53227 1-271)
# chain: T1 sequence
# Experiments:
# [1] = target: T1, Mte1-10flag (S. cerevisiae (budding yeast)); experiment: co-IP
# [2] = target: Mph1-3HA (S. cerevisiae (budding yeast)) (UniProt P40562); experiment: co-IP
Molecule,binding [1],binding [2]
Mph1-3HA (from UniProt P40562 1-993),binds,–
B1,–,binds
